Test [1] has as its target OCP-3FH variant of Orange Carotenoid Protein from Synechocystis sp. PCC 6803 (W41F, W101F, W110F, W277H) (Synechocystis sp. PCC 6803) (UniProt P74102). Briefly: SEC; analytical size-exclusion spectrochromatography (SESC), Superdex 200 Increase 5/150, 20 mM Tris-HCl pH 7.6, 150 mM NaCl, 0.45 ml/min; individual protein at about 50 µM, dark-adapted; apparent Mw from column calibration; both purified. On the technique in general: SEC sorts molecules by how far they enter the pores of the column.

Test [2] addresses T1, wild-type Orange Carotenoid Protein from Synechocystis sp. PCC 6803 (Synechocystis sp. PCC 6803), P74102.
T1 chain: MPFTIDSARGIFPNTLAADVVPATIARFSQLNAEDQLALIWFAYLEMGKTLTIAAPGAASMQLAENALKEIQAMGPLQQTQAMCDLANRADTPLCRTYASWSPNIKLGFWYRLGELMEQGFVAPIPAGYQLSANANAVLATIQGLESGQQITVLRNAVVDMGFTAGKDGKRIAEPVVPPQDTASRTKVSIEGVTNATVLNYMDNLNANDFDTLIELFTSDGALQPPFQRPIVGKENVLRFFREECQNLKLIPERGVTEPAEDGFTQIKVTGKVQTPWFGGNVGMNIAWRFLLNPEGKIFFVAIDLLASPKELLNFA
The test is described as above. Particulars: remark: other sources report otherwise.

No constants are given. Whether binding was seen depends on the method and setting.

B1: OCP-3FH variant of Orange Carotenoid Protein from Synechocystis sp. PCC 6803 (W41F, W101F, W110F, W277H) (protein, UniProt P74102 1-316)
chain: MPFTIDSARGIFPNTLAADVVPATIARFSQLNAEDQLALIFFAYLEMGKTLTIAAPGAASMQLAENALKEIQAMGPLQQTQAMCDLANRADTPLCRTYASFSPNIKLGFFYRLGELMEQGFVAPIPAGYQLSANANAVLATIQGLESGQQITVLRNAVVDMGFTAGKDGKRIAEPVVPPQDTASRTKVSIEGVTNATVLNYMDNLNANDFDTLIELFTSDGALQPPFQRPIVGKENVLRFFREECQNLKLIPERGVTEPAEDGFTQIKVTGKVQTPHFGGNVGMNIAWRFLLNPEGKIFFVAIDLLASPKELLNFA
Turning to B1, the binding result in test [1] was “no binding (tested: about 50 µM)”.

B2: wild-type Orange Carotenoid Protein from Synechocystis sp. PCC 6803, P74102 1-316 (protein)
chain: MPFTIDSARGIFPNTLAADVVPATIARFSQLNAEDQLALIWFAYLEMGKTLTIAAPGAASMQLAENALKEIQAMGPLQQTQAMCDLANRADTPLCRTYASWSPNIKLGFWYRLGELMEQGFVAPIPAGYQLSANANAVLATIQGLESGQQITVLRNAVVDMGFTAGKDGKRIAEPVVPPQDTASRTKVSIEGVTNATVLNYMDNLNANDFDTLIELFTSDGALQPPFQRPIVGKENVLRFFREECQNLKLIPERGVTEPAEDGFTQIKVTGKVQTPWFGGNVGMNIAWRFLLNPEGKIFFVAIDLLASPKELLNFA
As for B2, in test [2], the binding result is “no binding (tested: about 50 µM)”.

The record behind these values is paper PMC7366913.
